# Library compounds against nucleic acid targets

Calls as published in the ROBIN set (doi:10.1002/anie.202211358).

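The test is a small-molecule microarray: each compound is printed twice on a reactive slide, and binding shows as fluorescence of the labelled oligonucleotide after washing. The data file lists only calls. An earlier report of the laboratory on the PreQ1, TPP and SAM-II riboswitches (doi:10.1038/s41467-019-09493-3) used 1 µM RNA for 2 h and required a mean Z-score above 3 (spot signal-to-noise against the whole library), a score well above that on a control array, and duplicate spots agreeing (coefficient of variation under 100); it then also set aside compounds that hit other targets, which this list keeps. The cut-offs behind this list may differ. The calls come from the array alone, and fixing a compound to the slide can hide its binding.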 Key: hit = hit, no hit = tested without a hit. The compounds are a random part of those screened. A target missing from an entry has no call listed here. A dash means that no call is listed here.

Targets, with sequences 5′ to 3′:
T1: TPP riboswitch RNA three-way junction, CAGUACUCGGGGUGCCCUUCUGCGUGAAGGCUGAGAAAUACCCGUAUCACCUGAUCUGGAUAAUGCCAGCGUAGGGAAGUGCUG. About 160 hits among about 24,000 compounds.
T2: SAM-II riboswitch RNA pseudoknot, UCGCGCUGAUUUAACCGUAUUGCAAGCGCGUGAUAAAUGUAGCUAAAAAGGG. About 200 hits among about 21,000 compounds.
T3: PreQ1 riboswitch RNA pseudoknot, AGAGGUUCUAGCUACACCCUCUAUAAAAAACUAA. From B. subtilis. About 170 hits among about 24,000 compounds.

compound: C=CCNC(=O)c1nn(-c2ccc(Cl)cc2)nc1CO
T1: no hit
T3: no hit

compound: CC(=Cc1ccccc1)C=C1SC(=S)N(CC(=O)O)C1=O
T1: no hit
T2: no hit
T3: no hit

compound: Nc1c(C(=O)Nc2ccccc2Cl)sc2nc3c(cc12)CCCC3
T1: no hit
T2: no hit
T3: no hit

compound: CCOC(=O)C1CCN(c2c(NC3CCCCCC3)c(=O)c2=O)CC1
T1: no hit
T2: no hit
T3: no hit

compound: Cc1ccc(Nc2nc(N3CCCCC3)nc3c2cnn3C)cc1Cl
T1: no hit
T3: no hit

compound: COc1cc(-c2nc(CN)no2)cc(OC)c1OC
T1: no hit
T2: no hit
T3: no hit

compound: COc1ccc(OC)c(C2C(C#N)=C(N)Oc3n[nH]c(C(C)(C)C)c32)c1 (centres undefined)
T1: no hit
T2: no hit
T3: no hit

compound: COc1cc(CNCCSc2nnnn2C)cc(Br)c1OCc1ccccc1
T1: no hit
T3: no hit

compound: O=c1c2ccccc2ncn1CCCNCc1ccccc1
T1: no hit
T2: no hit
T3: no hit

compound: Cc1ccc(S(=O)(=O)c2nc(-c3ccccc3)oc2NCC2CCCO2)cc1 (centres undefined)
T1: no hit
T3: no hit

compound: CSc1ncc2ncn(C3OC(CO)C(O)C3O)c2n1 (centres undefined)
T1: no hit
T2: no hit
T3: no hit

compound: N#CC1=C(N)Oc2[nH]nc(-c3ccc(F)cc3)c2C1c1ccco1 (centres undefined)
T1: no hit
T2: no hit
T3: no hit

compound: CCSC1=C(C#N)C(c2ccccc2Cl)C(C#N)=C(N)N1 (centres undefined)
T1: no hit
T2: no hit
T3: no hit

compound: COc1ccccc1CNc1ncccc1-c1nc(-c2cccc(C)c2)no1
T1: no hit
T3: no hit

compound: O=C1NC(CCc2ccccc2)(C2CCNCC2)C(=O)N1CCO (centres undefined)
T1: no hit
T2: no hit
T3: no hit

compound: Cc1nc(N)nc(N2CCCC(O)(CN(C)C)CC2)c1CCC(=O)O (centres undefined)
T1: no hit
T2: no hit
T3: no hit

compound: Cc1ccc(C(CCO)NC(=O)c2ccc(CSc3ncccn3)o2)cc1 (centres undefined)
T1: no hit
T2: no hit
T3: no hit

compound: COc1ccc(Oc2nonc2N)cc1
T1: no hit
T2: no hit
T3: no hit

compound: COc1ccc(Cn2c(CN)nc3cccnc32)cc1
T1: no hit
T2: no hit
T3: no hit

compound: O=C(O)c1ccc(Nc2c(-c3cccc(O)c3)nc3cnccn23)cc1
T1: no hit
T3: no hit

compound: Cc1cc(C[C@@H]2COC[C@@H]2NC(=O)CCc2csc(N)n2)on1
T1: no hit
T2: no hit
T3: no hit

compound: c1ccc(-c2nc3c(c(N4CCC(n5ccnc5)C4)n2)CCNCC3)nc1 (centres undefined)
T1: no hit
T2: no hit
T3: no hit

compound: COc1ccc(CNc2nc3nc(C)cc(C)n3n2)cc1
T1: no hit
T3: no hit

compound: Nc1ccc(OCC(=O)N2CCCC2)cc1
T1: no hit
T2: no hit
T3: no hit

compound: COCCNC(=O)C(=O)NCCCO
T1: no hit
T2: no hit
T3: no hit

compound: CC1=C(c2ccc(Cl)cc2)S(=O)(=O)N=C1Nc1ccc(C)c(C)c1
T1: no hit
T3: no hit

compound: CNC(C)C(=O)C12CC3CC(CC(C3)C1)C2.Cl (centres undefined)
T1: no hit
T2: no hit
T3: no hit

compound: CC1=CCN(Cc2ccc(OCC(O)CN3CCN(C)CC3)cc2)CC1 (centres undefined)
T1: no hit
T2: no hit
T3: no hit

compound: CN(Cc1csc(-c2cccs2)n1)c1nccc(N2CCC(O)C2)n1 (centres undefined)
T1: no hit
T2: no hit
T3: no hit

compound: Cc1cccc2c(CCN)c[nH]c12
T1: no hit
T2: no hit
T3: no hit

compound: CC(C)c1noc(C(C)NC(=O)c2cccc3c2NCCC3)n1 (centres undefined)
T1: no hit
T2: no hit
T3: no hit

compound: CC(=O)N1CCN(c2ccc(Cl)cc2N)CC1
T1: no hit
T2: no hit
T3: no hit

compound: O=S(=O)(c1ccc(Cl)cc1)c1nc(-c2ccccc2)oc1NC1CC1
T1: no hit
T3: no hit

compound: Cc1ccc(F)c(OC2(C(=O)O)CCN(C[C@H]3[C@@H]4CNC[C@@H]43)CC2)c1
T1: no hit
T2: no hit
T3: no hit

Some entries from above, unchanged:

| compound | T1 | T2 | T3 |
|---|---|---|---|
| `CC(=O)N1CCN(c2ccc(Cl)cc2N)CC1` | no hit | no hit | no hit |
| `CSc1ncc2ncn(C3OC(CO)C(O)C3O)c2n1` (centres undefined) | no hit | no hit | no hit |
| `O=C1NC(CCc2ccccc2)(C2CCNCC2)C(=O)N1CCO` (centres undefined) | no hit | no hit | no hit |
| `COc1ccc(CNc2nc3nc(C)cc(C)n3n2)cc1` | no hit | - | no hit |